Some compounds share one wording; it may come from a single statement.
Tests used:
[1] = Selectivity of the Eu3+-3,4,3-LI(1,2-HOPO) probe: optical response to Gd3+ and interfering cations; format: physicochemical; details: 50 μM cation; 315 nm excitation
[2] = Detection of GBCA in synthetic human urine by luminescence quenching assay; details: for Dynamic range / Limit of detection / GBCA concentration at which response curve reaches saturation: 50% synthetic human urine, 50 mM MES pH 6.0; for Adjusted limit of detection: corrected for the 50% urine sample dilution
Description: In this assay, 3,4,3-LI(1,2-HOPO) is added to the urine sample and, in the absence of GBCAs, 1,2-HOPO groups remain available to complex other metal species. Eu^3+ is then added, and its emission is sensitized (FIG. 3). In the presence of GBCAs, however, 1,2-HOPO units acquire the Gd^3+ from the contrast agent because of their higher affinity for the metal compared to clinical ligands,^23 preventing the coordination of subsequently added Eu^3+. Thus, a drastic emission quenching is induced in presence of GBCAs.
Surine™ samples containing different amounts of GBCA are diluted down to 50% with MES solution (final concentration 50 mM, pH 6.0). 2 μL 3,4,3-LI(1,2-HOPO) (1 mM) are added to each solution, mixed for 10 s, and left to incubate at room temperature, without stirring for 10 min. 2 μL EuCl3 (1 mM) are added, mixed for 10 s and left undisturbed for 10 min before recording emission spectra from 500 to 700 nm under 315 nm excitation with a SpectraMax iD3 Multi-Mode Microplate Reader.
The limit of detection is calculated as: […]
Where ILOD is the assay response intensity at the limit of detection, Iblank is the response intensity of the blank, and σblank is the standard deviation for the blank signal.

Row | SMILES | luminescence variation when Eu^3+ and 3,4,3-LI(1,2-HOPO) are mixed with the cation [1] | Dynamic range [2] [µM] | Limit of detection [2] [µM] | Dynamic range ([2]; listed as Omniscan®) [µM] | Adjusted limit of detection [2] [µM] | GBCA concentration at which response curve reaches saturation [2]
1 | [Na+] [Na^+] | No significant luminescence variation | – | – | – | – | –
2 | [Ca+2] [Ca^2+] | No significant luminescence variation | – | – | – | – | –
3 | CNC(=O)CN(CCN(CCN(CC(=O)[O-])CC(=O)NC)CC(=O)[O-])CC(=O)[O-].[Gd+3] [Omnsican, gadodiamide] | – | 0.9 to 50 | 0.9 | 0.9 to 50 | 1.8 | –
4 | [K+] [K^+] | No significant luminescence variation | – | – | – | – | –
5 | CNC[C@H](O)[C@@H](O)[C@H](O)[C@H](O)CO.CNC[C@H](O)[C@@H](O)[C@H](O)[C@H](O)CO.O=C([O-])CN(CCN(CC(=O)[O-])CC(=O)O)CCN(CC(=O)O)C(COCc1ccccc1)C(=O)[O-].[Gd+3] (stereo not drawn) [Multihance, gadobenate dimeglumine] | – | 2.3 to 150 | 2.3 | – | 4.6 | around 150 μM
6 | CNC[C@H](O)[C@@H](O)[C@H](O)[C@H](O)CO.CNC[C@H](O)[C@@H](O)[C@H](O)[C@H](O)CO.O=C([O-])CN(CCN(CC(=O)[O-])CC(=O)O)CCN(CC(=O)[O-])CC(=O)O.[Gd+3] [Magnevist, gadopentetate dimeglumine] | – | 6.1 to 150 | 6.1 | – | 12.2 | around 150 μM

Reference: patent publication US20220373555A1, “Methods to detect or quantify a gadolinium-based contrast agent in a sample using a luminescent agent able to chelate a Gd3+ cation” (THE REGENTS OF THE UNIVERSITY OF CALIFORNIA, priority 2021, published 2022)
